These are yes or no findings as the source states them, for the method shown. Some results given as binding are weak or reduced against the parent protein; the word gives no strength.
How the values were obtained:
[1] = target: T1, human BAI1 (plate-coated, ELISA) (human) (UniProt O14514); test: ELISA, plate coated with 2 µg/ml human BAI1; anti-human Fc HRP detection
T1 sequence: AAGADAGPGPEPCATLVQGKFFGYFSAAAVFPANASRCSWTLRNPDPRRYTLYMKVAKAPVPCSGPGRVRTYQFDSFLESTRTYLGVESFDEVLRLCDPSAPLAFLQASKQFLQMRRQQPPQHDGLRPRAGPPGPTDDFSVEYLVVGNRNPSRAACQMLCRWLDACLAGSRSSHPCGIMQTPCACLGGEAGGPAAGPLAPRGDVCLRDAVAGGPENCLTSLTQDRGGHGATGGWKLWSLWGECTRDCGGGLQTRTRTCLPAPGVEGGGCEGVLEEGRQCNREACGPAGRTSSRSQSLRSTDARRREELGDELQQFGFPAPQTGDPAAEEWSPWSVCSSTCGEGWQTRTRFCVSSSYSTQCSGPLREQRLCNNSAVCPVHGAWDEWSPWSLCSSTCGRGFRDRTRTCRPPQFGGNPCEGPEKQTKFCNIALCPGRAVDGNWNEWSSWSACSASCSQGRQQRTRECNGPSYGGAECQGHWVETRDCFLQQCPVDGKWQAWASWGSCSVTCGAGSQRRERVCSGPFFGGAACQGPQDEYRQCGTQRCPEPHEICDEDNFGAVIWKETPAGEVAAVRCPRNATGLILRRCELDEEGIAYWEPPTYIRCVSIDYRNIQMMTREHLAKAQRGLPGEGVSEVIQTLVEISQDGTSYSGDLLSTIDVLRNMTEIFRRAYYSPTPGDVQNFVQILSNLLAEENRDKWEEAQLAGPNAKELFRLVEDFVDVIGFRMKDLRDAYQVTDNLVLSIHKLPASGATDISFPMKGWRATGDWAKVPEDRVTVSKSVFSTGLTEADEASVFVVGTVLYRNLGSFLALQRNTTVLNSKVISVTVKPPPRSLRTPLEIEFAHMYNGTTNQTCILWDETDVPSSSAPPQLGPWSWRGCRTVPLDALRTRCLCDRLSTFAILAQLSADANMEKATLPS

[2] = target: T1, human BAI1 (plate-coated, ELISA) (human); test: ELISA on plate-coated human BAI1 (2 ug/ml), detected with HRP anti-human Fc

B1: G8 IgG (humanized anti-BAI1 IgG) (antibody, V domains shown)
VH: VQLQESGPGLVKPSQSLSLTCTVTGYSITSDYAWNWIRQFPGNKLEWMGYISYSGSTSYNPSLKSRISITRDTSKNQFFLQLNSVTTEDTATYYCANAQGYAMDYWGQGTSVTVSS
VL: DIVMTQSPATLSVTPGDRVSLSCRASQSISDYLHWYQQKSHESPRLLIKYASQSISGIPSRFSGSGSGSDFTLSINSVEPEDVGVYYCQNGHSFPFTFGSGTKLEIKR
B1 was tested, and the binding [1] was “binds” and the binding [2] was “binds”.
